Results of single-concentration screens

By UniProt entry, the sequences of proteins in these tests, tags left out. Residues count along the entry.
UniProt Q4DA54, 1-478: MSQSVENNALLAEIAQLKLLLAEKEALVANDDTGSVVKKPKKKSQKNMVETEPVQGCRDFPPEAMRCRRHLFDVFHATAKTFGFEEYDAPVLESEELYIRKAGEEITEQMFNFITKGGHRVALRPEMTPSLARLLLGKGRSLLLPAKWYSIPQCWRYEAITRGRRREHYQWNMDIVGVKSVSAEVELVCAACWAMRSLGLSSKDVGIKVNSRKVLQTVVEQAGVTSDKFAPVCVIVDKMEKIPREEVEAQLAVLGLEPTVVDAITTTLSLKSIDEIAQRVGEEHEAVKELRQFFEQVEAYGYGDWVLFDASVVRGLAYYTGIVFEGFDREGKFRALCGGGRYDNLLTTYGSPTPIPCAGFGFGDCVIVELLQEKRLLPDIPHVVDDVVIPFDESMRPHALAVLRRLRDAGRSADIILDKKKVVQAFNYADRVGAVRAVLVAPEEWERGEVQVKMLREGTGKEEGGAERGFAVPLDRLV
UniProt A4I591, 1-473: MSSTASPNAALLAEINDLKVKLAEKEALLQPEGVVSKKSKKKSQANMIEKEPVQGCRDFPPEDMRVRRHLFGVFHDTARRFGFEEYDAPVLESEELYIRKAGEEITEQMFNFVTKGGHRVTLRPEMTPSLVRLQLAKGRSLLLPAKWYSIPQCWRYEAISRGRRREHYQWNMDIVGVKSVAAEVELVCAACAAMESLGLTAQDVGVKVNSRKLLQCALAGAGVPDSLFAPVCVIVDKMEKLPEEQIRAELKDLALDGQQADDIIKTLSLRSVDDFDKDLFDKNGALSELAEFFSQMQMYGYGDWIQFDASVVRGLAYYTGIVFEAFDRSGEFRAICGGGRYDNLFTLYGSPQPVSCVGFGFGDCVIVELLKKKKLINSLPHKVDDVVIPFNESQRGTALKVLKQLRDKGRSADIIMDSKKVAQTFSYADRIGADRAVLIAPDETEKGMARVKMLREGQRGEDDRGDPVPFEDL

Source: ChEMBL document CHEMBL3988442, “University of Dundee, Small-Polar-MMV Screening Library” (2021).

Toxoplasma: 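Assay of Toxoplasma gondii numbers, read through their beta-galactosidase reporter with a colour substrate. Concentration: 10 µM. Higher reads as fewer parasites (inferred from which compounds were picked for retests). Of about 67,000 compounds tested this way, about 260 (0.38%) reached 50% or more in at least one test.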
TcHisRS: 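Histidine-tRNA ligase, Trypanosoma cruzi CL Brener (UniProt Q4DA54). Enzyme assay of histidyl-tRNA synthetase; the read-out is not stated. Tested at 30 µM. The record gives no direction; compounds that gave an IC50 in retests scored well above the rest, so higher reads as stronger inhibition. Of about 69,000 compounds tested this way, about 31 (0.045%) reached 50% or more in at least one test.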
LiHisRS: 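Enzyme assay of histidyl-tRNA synthetase; the read-out is not stated. Target: Histidine-tRNA ligase, Leishmania infantum (UniProt A4I591). Concentration: 30 µM. The record gives no direction; compounds that gave an IC50 in retests scored well above the rest, so higher reads as stronger inhibition. The assay is labelled LdHisRS but filed under L. infantum. About 69,000 compounds were tested under these conditions; 0.6% (about 410) showed 50% or more at least once.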
T. brucei: 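Whole-parasite assay of Trypanosoma brucei over 72 hours; the read-out is not stated. Concentration: 30 µM. Direction is inferred from retests: higher values go with stronger inhibition. Values scatter widely below zero; nearly all retest evidence comes from the higher of the two concentrations used. Of about 64,000 compounds tested this way, about 940 (1.5%) reached 50% or more in at least one test.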

Results are given as percent effect. The controls that fix the scale are not given in the record; negative values are as filed. This is an unselected part of the compounds tested. A dash means the value is not listed here; it may have been measured.

| Compound | Toxoplasma | TcHisRS | LiHisRS | T. brucei |
|---|---|---|---|---|
| `CN(C)CC1CSCCCN1C(=O)c1ccsc1` (stereo unspecified) | 4.727% | 9% | 9.589% | -14.92% |
| `O=C(O)C(F)(F)F.O=C1CC(c2ccccc2)C2(CCN(C(=O)c3ccncc3F)CC2)N1` (stereo unspecified) | -9.313% | - | - | 1.974% |
| `COCCC1(CNC(=O)NC2CCCN(C)C2)CC1` (stereo unspecified) | -25.38% | 7.853% | 3.448% | -48.54% |
| `CCOc1ccc(C(=O)N(C)Cc2nccn2CC(F)(F)F)cc1` | -5.82% | -6% | 2.74% | 5.644% |
| `CC(C)Nc1nc2c(cc1C(=O)N(C)C)CCNCC2` | - | 2.703% | 9.434% | - |
| `Cc1ccccc1OCCCC(=O)N1CCCC(n2cncn2)C1` (stereo unspecified) | -13.22% | 3.226% | 8.333% | 9.03% |
| `O=C(O)C(F)(F)F.[H][C@@]12CN(Cc3nccn3C)C[C@]1([H])OCCN2c1ccnc(N(C)C)n1` | 4.455% | - | - | -38.61% |
| `c1csc(N2CCN(Cc3cc4n(n3)CCNC4)CC2)n1` | 13.59% | -5.641% | 15.87% | 12.36% |
| `CN1CCN(CC2CN(CC3CC3)Cc3nccn3C2)CC1.O=C(O)C(F)(F)F.O=C(O)C(F)(F)F.O=C(O)C(F)(F)F` (stereo unspecified) | -4.412% | - | - | 17.64% |
| `COCCNC(=O)c1ccc(NCc2csc(C)n2)cc1Cl` | - | 7.921% | 13.04% | -35.61% |
| `CN(Cc1ccon1)C(=O)C1CC(=O)N(Cc2cccnc2)C1` (stereo unspecified) | -3.884% | 0% | 4.918% | -38.25% |
| `Cc1ccc(F)cc1NC(=O)NCC(C)N1CCOCC1` (stereo unspecified) | -3.223% | -22.99% | 13.46% | -17.96% |
| `Cc1nc2cc(O)nn2c(C)c1CCC(=O)N(C)CCC(C)C` | -19.73% | 3.015% | 24.47% | -11.2% |
| `Cl.NC1(c2nc(C(F)(F)F)cc(=O)[nH]2)CCCC1` | -0.758% | - | - | -63.12% |
| `CCn1ncc2c1CCCC2NCc1csc(C(C)C)n1` (stereo unspecified) | 3.767% | 9.211% | 12.5% | -16.99% |
| `COC(=O)NCC(=O)N1CCCCC1c1nc2cc(F)ccc2[nH]1` (stereo unspecified) | 0.5187% | 4.712% | 11.83% | 9.515% |
| `CC(=O)NCC(=O)N1CCOC2(CCCN(c3cccnc3)C2)C1` (stereo unspecified) | - | 2.674% | -26.92% | - |
| `CNc1nc2c(s1)C(c1cc(Cl)ccc1F)CC(=O)N2` (stereo unspecified) | -22.72% | 36.02% | 42.5% | -18.85% |
| `O=C(CC1CC1)NCc1cn2c(n1)CN(CC1CC1)CC2` | - | 0.5464% | 12.41% | - |
| `O=C(O)C(F)(F)F.O=C(O)C(F)(F)F.[H][C@]12C[C@@H](C(=O)N(C)Cc3ccccn3)CO[C@@]1([H])CCN(CC1CC1)C2` | -12.85% | - | - | -96.69% |
| `Cc1nc(N(Cc2ccncc2)CC2CCCO2)c2ccsc2n1` (stereo unspecified) | -1.422% | 6.522% | 19.74% | -157.9% |
| `N[C@H]1CN(C(=O)c2cnc3cc(Cl)ccc3c2O)C[C@@H]1C1CC1` | -3.818% | 5.422% | 15.38% | -9.096% |
| `Cc1cc(CN(Cc2ccccc2)C(C)CN2CCOCC2)no1` (stereo unspecified) | 7.133% | 0.5405% | 5.128% | -11.63% |
| `O=C(CNC(=O)c1cnc2ccccc2c1O)NCCn1ccnc1` | 5.844% | 3.175% | 13.7% | -164.8% |
| `[H][C@@]12CN(C(C)=O)CCO[C@]1([H])CN(S(=O)(=O)C1CC1)C2` | -35.95% | - | - | -92.08% |
| `[H][C@@]12OCCN(S(=O)(=O)C3CC3)[C@@]1([H])CC[C@H]2OCC1CCCC1` | 11.11% | - | - | 48.14% |
| `CN1CCN(c2nsc(-c3cccnc3)c2C#N)CC1` | 12.57% | 2.212% | 13.27% | -44.2% |
| `N#Cc1cccnc1N1CCC(C2CCCCCN2C(=O)C2CC2)CC1` (stereo unspecified) | -5.176% | 5.917% | 17.86% | 53.48% |
| `COc1ccc(-c2cc(CN)ccc2F)c(OC)c1OC` | -5.065% | -2.703% | -1.709% | -22.81% |
| `CNC(=O)COc1ccccc1CNC1CCc2ncnn2C1` (stereo unspecified) | -14.51% | 0.7634% | 2.128% | -7.061% |
| `CC[C@@]1(O)CCN(C(=O)c2ccc(OC(F)F)cc2)C[C@H]1O` | 7.993% | 4.082% | 12.9% | -43.68% |
| `CC(C)c1nc(CN(C)C(=O)c2ccc3c(c2)OCO3)cs1` | -50.82% | 4% | 8.197% | 56.82% |
| `O=C(c1ccc2[nH]ccc2c1)N1CCn2cnc(COCC3CC3)c2C1` | -1.552% | 43.48% | 61.17% | 18.75% |